This passage reports aqueous ciprofloxacin concentration, vitreous ciprofloxacin concentration and concentration results from patent US5773019A, “Implantable controlled release device to deliver drugs directly to an internal portion of the body” (The University of Kentucky Research Foundation, priority 1995, dated 1998).

For data set [1] the following is noted: 5 mg subconjunctival injection, 1, 3 and 7 days.
The nature of a further data set: in vivo. The note with it: rabbit, vitreous.

Each structure is given as a SMILES string.

In data set [1], `O=C(O)c1cn(C2CC2)c2cc(N3CCNCC3)c(F)cc2c1=O` [ciprofloxacin] gave an aqueous ciprofloxacin concentration of under 0.2 µg/mL and a vitreous ciprofloxacin concentration of under 0.2 µg/mL. The same molecule came in with a concentration at 336 h in the data set “in vivo” of over 1000 ng/mL.
